Measured values published in PubChem BioAssay AID504444 (National Center for Advancing Translational Sciences (NCATS), 2011).
About 7,500 (2.1%) of roughly 360,000 compounds were called active. The inconclusive results got no clear call from the source; some entries with a clear call stand among them for comparison. Calls come from the whole dose curve; as a rule, active = well fitted inhibition curve with a large enough effect; inconclusive = small, poorly fitted or top-dose-only effect, or effect the other way; inactive = flat fitted curve, though single readings scatter. Where the call is inconclusive, the potency comes from a doubtful curve fit.

Experiment: Nrf2 qHTS screen for inhibitors; note: nearly all actives have a fitted effect of over 60% in size
Details: A549 ARE-Fluc reporter, luciferase luminescence, 18-24 h; series mostly up to 46 µM
Summary of the method: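 A549 ARE_Fluc cells, 5000/well, 5% FBS OPTI-MEM; compounds in dose-response, 18-24 h at 37 °C/5% CO2; CellTiter-Fluor viability read (Ex 405/Em 525), then BugLite luciferase luminescence = Nrf2 activity.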
Potency is the fitted concentration of half-maximal effect.

| Structure (SMILES) | Potency |
| --- | --- |
| COC(=O)c1cc2oc3ccccc3c2n1CC(=O)Nc1ccc(OC)c(OC)c1OC | inconclusive: 23.1 µM [falling, single point] |
| O=C(Nc1ccccn1)c1ccc2ccccc2n1 | inconclusive: 2.82 µM [activator, full curve] |
| CN(c1ccccc1)S(=O)(=O)c1ccc(C(=O)Nc2ccncc2)cc1 | inconclusive: 32.6 µM [falling, single point] |
| CN(C)c1ccc(C(=O)N2CCCC(CCC(=O)N3CCN(c4ccccn4)CC3)C2)cc1 (stereo unspecified) | inconclusive: 29.1 µM [falling, single point] |
| CC(C)OCCCN(Cc1ccco1)C(=O)c1cc2c(s1)-c1ccccc1OC2 | active: 16.4 µM |
| CC(C)(C)c1ccc(CSc2ccc(S(=O)(=O)N3CCOCC3)cn2)cc1 | inconclusive: 32.6 µM [falling, single point] |
| Cc1ccc(NC(=S)Nc2cc(C)on2)cc1 | inconclusive: 18.4 µM [activator, partial curve] |
| Cc1cc(C)cc(NC(=O)c2nnn(Cc3cc(C)ccc3C)c2N)c1 | inconclusive: 18.4 µM [falling, single point] |
| CCCc1cc(NCc2ccccn2)n2c(nc3ccccc32)c1C#N | inconclusive: 25.9 µM [falling, partial curve, poor fit] |
| O=C(Nc1cc(Cl)ccn1)C1CCN(S(=O)(=O)c2cccs2)CC1 | inconclusive: 29.1 µM [falling, single point] |
| COc1ccccc1NC(=O)/C(=N/OCc1ccc(C#N)cc1)C(C)=O | inconclusive: 29.1 µM [falling, partial curve, poor fit] |
| O=C(CCCCCn1c(=S)[nH]c2ccc(N3CCOCC3)cc2c1=O)NCc1ccc2c(c1)OCO2 | inactive |
| O=C(Nc1nc(-c2ccccn2)cs1)Nc1ccc(F)cc1F | inconclusive: 20.6 µM [falling, single point] |
| N#Cc1ccc(S(=O)(=O)NC2CCCCNC2=O)cc1 (stereo unspecified) | inactive |
| COc1ccc(OCCNC(=S)Nc2cccc3ccccc23)cc1 | inconclusive: 29.1 µM [falling, single point] |
| COc1ccc(CNS(=O)(=O)c2ccc3c(c2)NC(=O)C(C)S3)cc1 (stereo unspecified) | inactive |
| CC(=O)c1ccc(S(=O)(=O)N2CCCC(N(C)CCc3ccccn3)C2)cc1 (stereo unspecified) | inconclusive: 29.1 µM [activator, single point] |
| O=C(CSc1ncc2c(n1)-c1ccccc1N(Cc1ccc(F)cc1)S2(=O)=O)c1ccc(Cl)cc1 | inactive |
| CCC(COC(=O)c1ccccc1)Oc1cc(NCc2ccccc2)c2ncn(C(C)C)c2c1 (stereo unspecified) | active: 23.1 µM |
| Cc1cccc(C(=O)N[C@H](C(=O)Nc2ccc(S(=O)(=O)NC3=NCCCCC3)cc2)C(C)C)c1 | inactive |
| CC(=O)C1=C(C)OC(N)=C(C#N)C1c1ccco1 (stereo unspecified) | inactive |
| CCCCn1c(/C=N/Nc2nc3ccccc3[nH]2)nc2ccccc21 | inconclusive: 29.1 µM [falling, single point] |

| Structure (SMILES) | Potency |
| --- | --- |
| O=C(Nc1ccccn1)c1sc2cc([N+](=O)[O-])ccc2c1Cl | inconclusive: 3.66 µM [activator, full curve] |
| O=C(c1cc2ccccc2oc1=O)N(Cc1ccccc1)Cc1ccc2c(c1)OCO2 | inconclusive: 25.9 µM [falling, single point] |
| Cn1nnnc1SCCCNCc1cc(Br)ccc1OCc1ccccc1 | inactive |
| O=C(Nc1cccc(F)c1)c1cc(S(=O)(=O)NCCC2=CCCCC2)ccc1F | inconclusive: 29.1 µM [falling, single point] |
| CCc1cc(=O)oc2cc3occ(C)c3cc12 | inconclusive: 13 µM [falling, partial curve, poor fit] |
| NC(=O)c1ccsc1NC(=O)c1ccc([N+](=O)[O-])o1 | inactive |
| Fc1cccc(CN2CCN(Cc3nc(CCc4ccccc4)no3)CC2)c1 | inconclusive: 0.0082 µM [falling, full curve, poor fit] |
| O=C1CCC(C(=O)OCc2nnc(-c3ccc(Br)cc3)o2)=NN1 | inconclusive: 13 µM [activator, partial curve, poor fit] |
| N/C(=N\OC(=O)c1ccc(Cl)cc1[N+](=O)[O-])c1ccccn1 | inconclusive: 9.2 µM [activator, partial curve, poor fit] |
| COc1ccc(Nc2nc(C(=O)N3CCc4cc(OC)c(OC)cc4C3)cs2)cc1 | inconclusive: 16.4 µM [falling, single point] |
| COc1cc2c(cc1OC)-c1cc(=Nc3c(C)cc(C)cc3C)n(C)c(=O)n1CC2 | inconclusive: 14.6 µM [falling, partial curve, poor fit] |
| CCOc1ccc(Nc2nc(Cc3nnc(SCC(=O)N(CC)CC)n3C)cs2)cc1 | inactive |
| Clc1ccc(-n2nnnc2-c2cnc3ccccc3c2-c2ccccc2)cc1 | inconclusive: 32.6 µM [falling, single point] |
| O=C(COc1ccc(Cl)cc1Cl)Nc1ccc(CN2CCOCC2)cc1 | inconclusive: 1.84 µM [falling, partial curve, poor fit] |
| O=C(/C=C/Nc1ccc([N+](=O)[O-])cc1Br)c1cccc2ccccc12 | inactive |
| CC(C)CCNC(=O)C(c1ccncc1)N(Cc1cccs1)C(=O)Cn1nnc(-c2ccc(F)cc2)n1 (stereo unspecified) | active: 2.59 µM |
| CCOc1cccc(-c2c(C(=O)N/N=C/c3ccoc3)nnn2-c2nonc2N)c1 | inconclusive: 29.1 µM [activator, single point] |
| COc1ccccc1N1CCN(C(=O)CSc2nc(C)c(C)c(=O)[nH]2)CC1 | inactive |
| COc1ccc(-n2nnnc2-c2cnc3cc4c(cc3c2C)OCO4)cc1 | inconclusive: 1.46 µM [falling, partial curve, poor fit] |
| CS(=O)(=O)N(CC(=O)N1CCc2ccccc2C1)c1cccc(F)c1 | inconclusive: 4.11 µM [falling, full curve] |
| Cc1cc(C)n(-c2cccc(Cl)c2)c(=O)c1C#N | inactive |
| COc1ccc(S(=O)(=O)N2CCCCC2)cc1NC(=O)c1[nH]c(C)c(C(C)=O)c1C | active: 18.4 µM |

Part of the list above in order of length of the SMILES, falling:

| Structure (SMILES) | Potency |
| --- | --- |
| COC(=O)c1cc2oc3ccccc3c2n1CC(=O)Nc1ccc(OC)c(OC)c1OC | inconclusive: 23.1 µM [falling, single point] |
| COc1ccccc1N1CCN(C(=O)CSc2nc(C)c(C)c(=O)[nH]2)CC1 | inactive |
| CC(C)(C)c1ccc(CSc2ccc(S(=O)(=O)N3CCOCC3)cn2)cc1 | inconclusive: 32.6 µM [falling, single point] |

Carrying on:

| Structure (SMILES) | Potency |
| --- | --- |
| CCN(CC)CCN(C(=O)c1ccc(S(=O)(=O)N2CCOCC2)cc1)c1nc2cc3c(cc2s1)OCCO3 | inactive |
| CC(C)Cn1c(N)c(C(=O)NCC2CCCO2)c2nc3ccccc3nc21 (stereo unspecified) | inconclusive: 10.3 µM [falling, partial curve, poor fit] |
| O=C(CSc1nnc(-c2ccccc2Br)n1-c1ccccc1)c1ccc(F)cc1 | active: 18.4 µM |
| CCCn1nnc(NC(=O)c2ccc([N+](=O)[O-])cc2Cl)n1 | inconclusive: 5.17 µM [activator, full curve] |
| O=C(NC1CCCC1)c1ccc(CSc2nc3cccnc3n2Cc2cccc(F)c2)cc1 | inconclusive: 16.4 µM [falling, single point] |
| O=C(/C=C/c1ccco1)Nc1ccc(Oc2ccccc2)cc1 | inconclusive: 3.66 µM [activator, single point] |
| O=C(O)c1ccc(COc2ccc3c4c(c(=O)oc3c2)CCC4)o1 | inconclusive: 29.1 µM [activator, single point] |
| CC1CCCCC1NC(=O)CN1C(=O)NC(Cc2ccccc2)(Cc2ccccc2)C1=O (stereo unspecified) | inconclusive: 11.6 µM [activator, partial curve, poor fit] |
| O=c1[nH]c(SCc2ccccc2)nc2c1CCCC2 | inconclusive: 4.61 µM [activator, partial curve] |
| CC(C)(C)C1CCc2nc(NC(=O)c3cccc(Cl)c3)sc2C1 (stereo unspecified) | inconclusive: 6.51 µM [activator, partial curve] |
| CC(C)NC1=C(Cl)C(=O)c2ccccc2C1=O | inconclusive: 32.6 µM [falling, single point] |
| O=C(CCl)Nc1ccc(-c2ccccc2)cc1 | inconclusive: 11.6 µM [falling, partial curve, poor fit] |
| CC(C)(C)NC(=O)C1Cc2ccccc2CN1 (stereo unspecified) | inconclusive: 16.4 µM [activator, single point] |
| COC(=O)C1CCN(C(=O)CN2C(=O)NC(CCc3ccccc3)C2=O)CC1 (stereo unspecified) | inconclusive: 29.1 µM [activator, single point] |
| COC(=O)C12OCC34C(CC5C(C)=C(O)C(=O)CC5(C)C3C(O)C1O)OC(=O)C(OC(=O)C=C(C)C)C24 (stereo unspecified) | active: 0.0164 µM |
| CCn1c(O)c(N=NC(=O)c2cccc(S(=O)(=O)N3CCCCC3)c2)c2ccccc21 | active: 20.6 µM |
| O=C(NCC1CCCO1)c1cc2c([nH]c3ccccc32)c(-c2cccc(Br)c2)n1 (stereo unspecified) | inconclusive: 23.1 µM [falling, partial curve, poor fit] |
| COc1ccc(CCNC(=O)c2ccc(N(C)S(=O)(=O)c3ccc(C)cc3)cc2)cc1OC | inconclusive: 29.1 µM [falling, single point] |
| CCOC(=O)c1c(C)[nH]c(C)c1S(=O)(=O)N1CCC(C(=O)NCc2ccc(F)cc2)CC1 | inconclusive: 14.6 µM [activator, partial curve] |
| Cc1cc(-c2ccc(S(=O)(=O)Nc3cccc(C)c3C)s2)on1 | inconclusive: 23.1 µM [falling, single point] |
| O=C(Nc1ccc(C(F)(F)F)cc1)c1cnc(N2CCN(c3ccccn3)CC2)c2ccccc12 | inconclusive: 16.4 µM [falling, single point] |
| COc1ccc(C(=O)CSc2nc3cc(C(=O)NC4CCCC4)ccc3c(=O)n2CC2CCCO2)cc1 (stereo unspecified) | inconclusive: 14.6 µM [activator, partial curve, poor fit] |
